These results are taken from article PMC7819943, “Rice protein-binding microarrays: a tool to detect cis-acting elements near promoter regions in rice”.

Sequences of proteins named here, by UniProt entry; tags and fusion partners are left off.
UniProt Q0JBA9, entry or part of it: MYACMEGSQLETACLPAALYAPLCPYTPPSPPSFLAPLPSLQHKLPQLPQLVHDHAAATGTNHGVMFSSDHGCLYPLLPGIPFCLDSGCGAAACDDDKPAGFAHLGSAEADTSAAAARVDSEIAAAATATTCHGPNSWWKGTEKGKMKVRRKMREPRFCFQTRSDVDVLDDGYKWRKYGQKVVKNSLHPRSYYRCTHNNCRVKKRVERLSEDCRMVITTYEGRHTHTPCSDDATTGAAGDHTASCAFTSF

The list shows a part of the results.

This test deals with OsWRKY34 (Oryza sativa, UniProt Q0JBA9 1-250). Nature of the test: protein-binding microarray (RPBM); PBS, 2% BSA, 51.3 ng/ul salmon testes DNA, 50 uM zinc acetate, 200 nM TF, 25 C, 1 h; high values mean tight binding. The note with it: protein: recombinant; tags: N-terminal polyhistidine and DsRed monomer fusion (pET32a); label: CyDye5-dUTP incorporated in the synthesized complementary strand; 3' TTTTT single-stranded linker to array surface; dsDNA, one strand shown. In a few lines: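 Transcription factors were made in E. coli BL21-CodonPlus as N-terminal fusions to a polyhistidine tag and DsRed, then purified on Ni–NTA. After primer extension with Cy5-dUTP and blocking with 2% BSA, a custom Agilent array was exposed for 1 h at 25 °C to 200 nM protein in PBS, 2% BSA, salmon testes DNA and 50 µM zinc acetate. Washed arrays were scanned on an Axon 4000B, and the binding signal is per-feature fluorescence intensity in arbitrary units.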
Take “CCTTTGCTTCTCCTTTACTCTCTCTCTCTCTCTCTCTCTCCGGAGTCACCTAGTGCAG”: the binding signal was 8450 fluorescence intensity (a.u.).

With “ATCAACCCGCAGTCCTAGGCCCATATGTCAGTGTGTTTCTCGGAGTCACCTAGTGCAG”, the binding signal was 8540 fluorescence intensity (a.u.).

As for “CCTTGTCTTCTCACCACCCATCATCAGGATCAGGTACTGCCGGAGTCACCTAGTGCAG”, the binding signal was 9710 fluorescence intensity (a.u.).

Consider “CGTCGCGTTGCGTTGACTCCACACTCCGGCCAGCAACATGCGGAGTCACCTAGTGCAG”, for which the binding signal is 10100 fluorescence intensity (a.u.).

With “ATAGTGTGTTTTTCTTTTCTCCATGTTGACAAATGTTCTACGGAGTCACCTAGTGCAG”, the binding signal was 10700 fluorescence intensity (a.u.).

Consider “TCATGTACTCCGTATTTCAGGACATCCAAGTTTTTTTTTTCGGAGTCACCTAGTGCAG”, for which the binding signal is 8280 fluorescence intensity (a.u.).

With “CAGCTCGACAGTCGGCAATACCACTGCCCAATCATTTTCACGGAGTCACCTAGTGCAG”, the binding signal was 8330 fluorescence intensity (a.u.).

“CTTACCTGCTATACGATTTTTTTTCATGTATTTATATATTCGGAGTCACCTAGTGCAG”: the binding signal is 12500 fluorescence intensity (a.u.).

For “TGCAGCCCTTTTTTGTTACCAATGATGAACCTATTGAAACCGGAGTCACCTAGTGCAG”, the binding signal is 10900 fluorescence intensity (a.u.).

On to “AAGGTCTCGCTCTCACTCACCGACGTCACCGTTCCTTTATCGGAGTCACCTAGTGCAG”, for which the binding signal was 10900 fluorescence intensity (a.u.).

Take “TGAACTTGCTCTTTCACCTAATCCTCTTGCAGTTTTTCTACGGAGTCACCTAGTGCAG”: the binding signal was 11800 fluorescence intensity (a.u.).

As to “GCAAGCCACTATCTCGACCAAAAATTTTGGTTTTTCTCAACGGAGTCACCTAGTGCAG”, the binding signal is 8110 fluorescence intensity (a.u.).

Turning to “GGTGGTGGTGGTGGTGGTGGGGAAGAAGACCACACACATTCGGAGTCACCTAGTGCAG”, the binding signal was 9290 fluorescence intensity (a.u.).

As to “TGTGCGGGCTCGTCTTCCTCGCCGCTCGCTCGCTCGCCTCCGGAGTCACCTAGTGCAG”, the binding signal is 8140 fluorescence intensity (a.u.).

On to “GTGATTGATTCGATTGATTGCCGCATCCACAGTTCTTTTCCGGAGTCACCTAGTGCAG”, for which the binding signal is 10400 fluorescence intensity (a.u.).

With “TCGTACGACGCGCACATCCACCCGCCGCTTTAAACCGCGCCGGAGTCACCTAGTGCAG”, the binding signal was 8400 fluorescence intensity (a.u.).

For “GTGTCTAAGACCCTGTTTAGTTCTAATTTTTTTCCCAAAACGGAGTCACCTAGTGCAG”, the binding signal was 8340 fluorescence intensity (a.u.).

As for “TGTATCTTATCTTTCATAATTTTTGTTCTAGGCTCGTCATCGGAGTCACCTAGTGCAG”, the binding signal was 8930 fluorescence intensity (a.u.).

With “GCTGTAGTTGCAGAAGCGCATGTATTACTTTTCATTTGAACGGAGTCACCTAGTGCAG”, the binding signal is 8690 fluorescence intensity (a.u.).

With “TATTTTTCACATAGCAGACGTAATATTCCTCCACCATTTTCGGAGTCACCTAGTGCAG”, the binding signal was 9490 fluorescence intensity (a.u.).

As to “CGCCGCCGCCGCCGCCGCCGCTCACCGCAACGAGCATACTCGGAGTCACCTAGTGCAG”, the binding signal was 10300 fluorescence intensity (a.u.).

As for “GCATTTTATTTTTGACACTTAAATGGAATTCTTGGTGGGGCGGAGTCACCTAGTGCAG”, the binding signal was 10000 fluorescence intensity (a.u.).

With “TTTTGTTTGCTTTGTTTGCTCTTCATCTAACGTAAAGGATCGGAGTCACCTAGTGCAG”, the binding signal was 9150 fluorescence intensity (a.u.).

Turning to “CTCGTTTGCTTGTTTTGCCTGTTTAGGTGGTAATGATAATCGGAGTCACCTAGTGCAG”, the binding signal was 9050 fluorescence intensity (a.u.).

Turning to “CTTTCTGATCACCAACTCCGCTCCTTTTAATCGCAACTACCGGAGTCACCTAGTGCAG”, the binding signal is 9660 fluorescence intensity (a.u.).

“TTCCCCACGATGTGGGTAGTATGGATTTTTTTTTCTGTTTCGGAGTCACCTAGTGCAG”: the binding signal is 9350 fluorescence intensity (a.u.).

“AGTTTTAAAATTTAAATTTTGGTTGGGTTGGCTGGTAAACCGGAGTCACCTAGTGCAG”: the binding signal was 9840 fluorescence intensity (a.u.).

Turning to “TTTTGAAGTCAAAGTTTCTGTAGCATAGCTGTCATCGTGTCGGAGTCACCTAGTGCAG”, the binding signal is 8790 fluorescence intensity (a.u.).

Consider “TATGGCTAGCCAACGTGTATTTTTATAATTCCTTTTGTAGCGGAGTCACCTAGTGCAG”, for which the binding signal was 8380 fluorescence intensity (a.u.).

Regarding “GGCACGGTGCTCTACGACAATGAGTTCGCCGCCCATCCACCGGAGTCACCTAGTGCAG”, the binding signal was 8640 fluorescence intensity (a.u.).

As to “CCACCGATCAGTTTCTTCCATCCACCACGTCGCGGCCGCCCGGAGTCACCTAGTGCAG”, the binding signal is 13800 fluorescence intensity (a.u.).

As to “TCCGCCTCCGCCGCGCCGGCCGCCGATCTCCATCTCCTCGCGGAGTCACCTAGTGCAG”, the binding signal was 8940 fluorescence intensity (a.u.).

Turning to “ATCCCTTCGATTTTTACATGTCATCTAAATAGTTATTAATCGGAGTCACCTAGTGCAG”, the binding signal is 8410 fluorescence intensity (a.u.).

Turning to “CTTGATTACCCCGTAGTCAGGTTTGTATGACTAAGCAACCCGGAGTCACCTAGTGCAG”, the binding signal is 8980 fluorescence intensity (a.u.).

For the sequence “CCCGCTGGTGCACTTCAACGCTACTCCTCTTCGCCGCCAACGGAGTCACCTAGTGCAG”, the binding signal is 9270 fluorescence intensity (a.u.).

In the case of “TATGTTTGGTCTGTTTGTAGTGTTTGAGAATCCTACGTATCGGAGTCACCTAGTGCAG”, the binding signal is 9460 fluorescence intensity (a.u.).

“AAATATGTGGGTTTTTTTATTGCAATGAAATATTTCAGTTCGGAGTCACCTAGTGCAG”: the binding signal was 8390 fluorescence intensity (a.u.).

Regarding “ACCTTCGTTTTGTTCTAAGTTACTTCTATAATATATGTAACGGAGTCACCTAGTGCAG”, the binding signal is 10600 fluorescence intensity (a.u.).

On to “GGATGTCTGTGTTCCTTCAATTTTGTTTTTCTGGTTGGGGCGGAGTCACCTAGTGCAG”, for which the binding signal is 12800 fluorescence intensity (a.u.).

Take “ATTTCACCACCACCGCCACGGCCTCTGCCTCTCGCTCTCTCGGAGTCACCTAGTGCAG”: the binding signal was 8260 fluorescence intensity (a.u.).

“GCTTTTTCCAAATATTTGTGAATTTGGTGTTTATTTATTCCGGAGTCACCTAGTGCAG”: the binding signal is 10400 fluorescence intensity (a.u.).

On to “CGTCACGATTAATTCTGCTATGCTTCTCGTCCTTCTTCCGCGGAGTCACCTAGTGCAG”, for which the binding signal was 8330 fluorescence intensity (a.u.).
